A short description of the experiment: qHTS Assay for Modulators of Lamin A Splicing. Particulars: HeLa LMNA splicing GFP/RFP minigene ratio, 48 h. The text has this: NCGC Assay Overview: Hutchinson-Gilford Progeria Syndrome (HGPS) is a pediatric premature aging disease caused by a spontaneous mutation in the lamin A/C (LMNA) gene. The mutation activates a cryptic splice site in the LMNA pre-mRNA which results in production of a pre-lamin A protein that cannot be processed properly. The mutant protein accumulates in the nucleus and negatively affects numerous cellular functions. Correction of the splicing defect in HGPS patient cells using a targeted oligonucleotide (exo11) leads to reversal of the cellular disease phenotypes. To identify small molecule modulators of aberrant LMNA splicing, a homogenous assay was constructed in HeLa cells that used a GFP containing minigene to report on correction of aberrant splicing in lamin A and a RFP (DsRed2) to report on cell viability, uniformity and nonspecific effects on the assay signal. This assay was adapted to laser-scanning microplate cytometry (Acumen, TTP Labtech) where miniaturization of the assay to a 1,536-well plate format was possible. References: Bowen, W. P.; Wylie, P. G. Application of Laser-Scanning Fluorescence Microplate Cytometry in High Content Screening. Assay Drug Dev Technol 2006;4:209-221. Scaffidi P, Misteli T. Reversal of the cellular phenotype in the premature aging disease Hutchinson-Gilford progeria syndrome. Nat.
NCGC Assay Protocol Summary: Reagents/Controls: Stable clones expressing DsRed2 and lamin A-EGFP were generated by Cell and Molecular Technologies in S3 HeLa cells. HeLa cells were prepared for the assay when they were 70-90% confluent. The cells were counted and resuspended in Opti-MEM I (no phenol red; Gibco), 2% FBS, 1% penicillin/ streptomycin (Gibco) at concentration of 120 cells/uL concentration. The suspension was passed through a Falcon basket filter with pore size 40um (Beckton Dickson). Control titrations: column […] 1536-well plate contained a sixteen point titration (1:2 dilutions) in duplicate of ancitabine (Sigma: A8598) beginning at 40 uM final concentration. Column 2 contained a sixteen point titration (1:2 dilutions) of cycloheximide beginning at 1.4 mM final concentration. Column 3 contained ancitabine at 40 uM and column 4 contained was the vehicle control (0.5% DMSO final concentration). Assay Steps: 5 uL of HeLa cells were plated in Aurora LoBase black clear bottom (cyclic-olefin polymer) 1536-well plates at a final density of 600 cells/well. Controls and library compounds were added with a 1536-well pin array using the Kalypsys pin-tool. The plates were then incubated for 48 hrs in a cell-culture incubator (37 °C; 5% CO2, 98% humidity). Following incubation the plates were read on the Acumen Explorer using the 488 nm laser. Data was collected on objects between 10 and 100 um in size. Cell objects were defined by a 15 um width x 10 um depth filter. The ratio of the total object intensity in PMT1 (500-530 nm emission; GFP) over PMT3 (575-640 nm emission; RFP) was calculated for analysis. Keywords: NIH Roadmap, MLSCN, MLI, MLSMR, qHTS, NCGC, lamin A, Progeria, RNA splicing.

Where [1] appears, read: measured here: RFP viability control channel.
Setting [2] is: measured here: GFP splicing reporter channel.

SMILES strings stand for the structures. The list shows a part of the results. The main result of the screen is listed elsewhere. These columns were measured beside it and carry no call. The list favours compounds with an active or inconclusive main result. Words in brackets tell the shape of the fitted curve; partial curves, single points and poor fits give uncertain potencies.

One may read the AC50 as the midpoint of the concentration-response curve, whichever way the signal moves. In the case of `CC1CCCCC1NC(=O)CN1CCC(O)(c2ccc(F)cc2)CC1` (stereo not drawn), the AC50 under setting [1] is 35.5 µM [rising, single point].
On the same count and under the same terms, with `CCOC(=O)/C(N=Nc1c(C)n(C)n(-c2ccccc2)c1=O)=C(\C)O` the figure was 1.78 µM [falling, full curve, poor fit].
Regarding `Cc1ccccc1CS(=O)(=O)CCC(=O)NCCN1CCN(c2cccc(Cl)c2)CC1`, the concentration at half-maximal activity (AC50) runs as follows: under setting [2], 7.94 µM [rising, partial curve]; under setting [1], 11.2 µM [rising, partial curve].
For `COc1cccc(CN(Cc2cccnc2)S(=O)(=O)c2ccc(-n3cnnn3)c(C)c2)c1`, the half-maximal activity concentration (AC50) under setting [1] is 22.4 µM [rising, partial curve, poor fit].
Regarding `Cc1c(C(N)=O)sc2ncn(CC(=O)NCCc3ccccc3)c(=O)c12`, the half-maximal activity concentration (AC50) is 11.2 µM [falling, partial curve, poor fit] under setting [2] and 15.8 µM [falling, partial curve] under setting [1].
For the compound `NC(=O)c1ccc(NC(=O)COC(=O)c2c3c(nc4ccccc24)/C(=C\c2cccs2)CCC3)cc1`, the half-maximal activity concentration (AC50) under setting [2] was 5.62 µM [falling, single point].
For the compound `O=C(N/N=C/c1cn(-c2cccs2)nc1-c1ccccc1)c1ccccc1Br`, the AC50 under setting [1] is 35.5 µM [rising, single point].
In the case of `CN(C(=O)COC(=O)c1cc(Br)c(Br)s1)C1CCS(=O)(=O)C1` (stereo not drawn), the concentration at half-maximal activity (AC50) reads like this: under setting [2], 35.5 µM [rising, single point]; under setting [1], 31.6 µM [rising, single point].
Consider `COc1ccccc1C(=O)Nn1c(-c2cccs2)nc2ccccc2c1=O`, for which the AC50 under setting [1] is 35.5 µM [rising, single point].
Take `Cc1cnccc1CN(C)Cc1cn(C)nc1-c1ccc(Oc2ccccc2)cc1`: the concentration at half-maximal activity (AC50) under setting [2] was 3.55 µM [falling, full curve, poor fit].
As to `COc1cccc(Cn2c(CNS(=O)(=O)c3ccc(C(C)(C)C)cc3)nc3cccnc32)c1`, the AC50 under setting [2] is 1.41 µM [falling, partial curve].
As for `CS(=O)(=O)N(CC(=O)N1CCCC1)c1ccc(OCc2ccccc2)cc1`, the AC50 runs as follows: under setting [2], 35.5 µM [rising, single point]; under setting [1], 35.5 µM [rising, single point].
`CCOC(=O)c1ccc(N=c2sc(C(=O)OC)cc(=O)n2Cc2ccco2)cc1`: the concentration at half-maximal activity (AC50) under setting [2] is 35.5 µM [falling, single point].
Take `COc1ccc(C(=O)Cn2nnc(-c3ccc(N4CCOCC4)cc3)n2)cc1OC`: under setting [1], the AC50 is 10 µM [rising, partial curve].
`O=S1(=O)CC/C(=N\Nc2ccc(F)cc2)c2ccsc21`: the concentration at half-maximal activity (AC50) by setting is: under setting [2], 11.2 µM [rising, partial curve, poor fit]; under setting [1], 12.6 µM [rising, single point].
Regarding `COc1ccc(-c2nc(CNC(=O)Nc3ccccc3)c(C)o2)cc1`, under setting [1], the AC50 was 0.0562 µM [falling, full curve, poor fit].
Turning to `Cc1noc2ncnc(Sc3ccc(Cl)cc3)c12`, the AC50 under setting [1] is 20 µM [falling, partial curve, poor fit].
On to `C(=N\Nc1ncnc2ccccc12)/c1ccccc1`, for which, under setting [1], the AC50 was 11.2 µM [falling, partial curve].
With `Cc1ccc(NC(=O)CCn2ccc([N+](=O)[O-])n2)nc1`, the AC50 is, setting by setting: under setting [2], 0.00891 µM [rising, full curve, poor fit]; under setting [1], 0.00891 µM [rising, full curve, poor fit].
Turning to `CCOC(=O)Cn1c(=O)n(CC2CCCO2)c2nc(-c3ccc(C(C)C)cc3)nc(C(N)=O)c21` (stereo not drawn), under setting [2], the AC50 was 0.158 µM [falling, full curve, poor fit].
With `NC(=O)CCCCC1CCSS1` (stereo not drawn), the AC50 under setting [2] is 1.26 µM [falling, single point] and the half-maximal activity concentration (AC50) under setting [1] was 0.0891 µM [rising, partial curve, poor fit].
For the compound `COc1ccc(NCC(=O)N/N=C/c2c(C)nn(Cc3ccccc3)c2Cl)cc1`, the concentration at half-maximal activity (AC50) runs as follows: under setting [2], 35.5 µM [rising, single point]; under setting [1], 35.5 µM [rising, single point].
In the case of `CCN(CCNC(=O)C1CCN(Cc2nc(-c3cccc(Cl)c3)oc2C)CC1)c1ccccc1`, the AC50 under setting [1] is 35.5 µM [rising, single point].
`Cc1cc(-n2c(C)cc(C(=O)CSc3ncnc4ccccc34)c2C)no1`: the AC50 under setting [1] is 0.447 µM [rising, full curve].
As to `COc1cccc(NC(=O)c2oc3ccccc3c2NC(=O)C2CC2)c1`, under setting [1], the AC50 was 11.2 µM [rising, partial curve, poor fit].
Turning to `CCOc1ccc(C(C)NC(=S)NC2CCCCC2)cc1OCC` (stereo not drawn), under setting [1], the AC50 was 20 µM [rising, single point].
Same read-out and setting: the value for `O=C(Nc1ccc(Cl)cc1)Nc1ccc2c(c1)N1CCN=C1S2` was 12.6 µM [rising, partial curve, poor fit].
With `CCCCOc1ccc(C(=O)C(CN2CCOCC2)c2ccccc2)cc1` (stereo not drawn), the AC50 was 35.5 µM [falling, single point] under setting [2] and 25.1 µM [falling, single point] under setting [1].
For `CCC(=O)NC(c1ccco1)c1cc(Cl)c2cccnc2c1O` (stereo not drawn), the AC50 is 5.62 µM [falling, partial curve] under setting [2] and 3.16 µM [falling, full curve] under setting [1].
For the compound `COC(=O)c1c(NC(=O)CN2CCC3(O)CCCCC3C2c2ccc(F)cc2)sc(C)c1C` (stereo not drawn), the AC50 runs as follows: under setting [2], 15.8 µM [rising, partial curve]; under setting [1], 15.8 µM [rising, partial curve].
On to `CC(/C=N/NC(=O)c1n[nH]c2c1CCC2)=C\c1ccccc1`, for which the AC50 reads like this: under setting [2], 2.51 µM [rising, full curve]; under setting [1], 1.78 µM [rising, full curve].
As for `Cn1c(SCCOc2ccc(Cl)cc2)nnc1-c1ccncc1`, the AC50 under setting [1] was 35.5 µM [rising, single point].
Take `CCC(C)(C)NC(=O)C(c1cccs1)N(C(=O)c1ccn[nH]1)c1cccc(OC)c1` (stereo not drawn): under setting [1], the AC50 was 0.158 µM [falling, full curve, poor fit].
Consider `CCCCOc1ccc(C(C)NC(=O)C2CCCN(S(=O)(=O)CCC)C2)cc1` (stereo not drawn), for which the half-maximal activity concentration (AC50) under setting [1] was 1.41 µM [falling, partial curve, poor fit].
Take `CC(C)CC(=O)/C(=C\c1ccc(Cl)cc1Cl)n1cncn1`: the AC50 runs as follows: under setting [2], 12.6 µM [rising, single point]; under setting [1], 31.6 µM [rising, single point].

Source of the values: PubChem BioAssay AID1487 (National Center for Advancing Translational Sciences (NCATS), 2009).
